Reference: publication doi:10.1101/2020.06.16.155333
No constants are given. Whether binding was seen depends on the method and setting. In cells and extracts the contact can be indirect. Some results given as binding are weak or reduced against the parent protein; the word gives no strength. Where a sequence is shown, tags or fusion partners need not be part of it.

By UniProt entry, the sequences of proteins in these tests, tags left out.
UniProt P53350: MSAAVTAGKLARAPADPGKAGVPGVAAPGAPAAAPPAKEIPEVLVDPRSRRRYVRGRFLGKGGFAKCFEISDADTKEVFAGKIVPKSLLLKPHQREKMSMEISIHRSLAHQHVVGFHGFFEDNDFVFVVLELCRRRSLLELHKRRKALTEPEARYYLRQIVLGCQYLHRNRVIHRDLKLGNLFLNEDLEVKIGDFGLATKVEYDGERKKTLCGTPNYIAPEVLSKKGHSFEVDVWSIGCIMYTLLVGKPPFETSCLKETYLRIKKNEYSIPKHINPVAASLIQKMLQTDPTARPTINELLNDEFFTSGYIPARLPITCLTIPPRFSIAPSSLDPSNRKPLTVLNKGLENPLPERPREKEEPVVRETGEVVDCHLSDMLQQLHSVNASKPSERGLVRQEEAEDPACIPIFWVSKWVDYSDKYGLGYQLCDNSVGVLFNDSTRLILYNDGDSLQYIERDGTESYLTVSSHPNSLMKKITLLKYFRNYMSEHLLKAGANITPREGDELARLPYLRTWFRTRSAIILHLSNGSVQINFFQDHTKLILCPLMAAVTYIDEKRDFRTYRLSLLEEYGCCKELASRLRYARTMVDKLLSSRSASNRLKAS

Target: Myc-Plk1 (UniProt P53350)
Assay: co-IP

B1: Vrk3 (3xFLAG-EGFP mammalian expression construct) (protein, UniProt Q8IV63 1-474)
chain: MISFCPDCGKSIQAAFKFCPYCGNSLPVEEHVGSQTFVNPHVSSFQGSKRGLNSSFETSPKKVKWSSTVTSPRLSLFSDGDSSESEDTLSSSERSKGSGSRPPTPKSSPQKTRKSPQVTRGSPQKTSCSPQKTRQSPQTLKRSRVTTSLEALPTGTVLTDKSGRQWKLKSFQTRDNQGILYEAAPTSTLTCDSGPQKQKFSLKLDAKDGRLFNEQNFFQRAAKPLQVNKWKKLYSTPLLAIPTCMGFGVHQDKYRFLVLPSLGRSLQSALDVSPKHVLSERSVLQVACRLLDALEFLHENEYVHGNVTAENIFVDPEDQSQVTLAGYGFAFRYCPSGKHVAYVEGSRSPHEGDLEFISMDLHKGCGPSRRSDLQSLGYCMLKWLYGFLPWTNCLPNTEDIMKQKQKFVDKPGPFVGPCGHWIRPSETLQKYLKVVMALTYEEKPPYAMLRNNLEALLQDLRVSPYDPIGLPMVP
- binding: binds
